PubChem BioAssay AID602196 – INSERM | 2012
In all, the deposit lists about 23,000 reagents; shown is a random part of them. 455 of all reagents (2%) were called active. 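Active includes both protection and sensitisation; some change values fall well beyond the stated -50 to +50 range.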 Not all columns of the deposit are shown. Not given: the amount of reagent.

Test: 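Genes whose knock-down alters cisplatin killing of lung cancer cells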
Cell system: human A549 lung cancer cells
Reagents: siRNA pair against human genes
Duration: 48 h transfection before cisplatin; time from cisplatin to read-out not stated
Treatment: cisplatin at a dose killing half of control-siRNA cells; exact dose and duration not given
Measured: 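Shift in cisplatin death relative to control siRNA, from -50 (all cells die) to +50 (no cells die); siRNAs harmful on their own scored 0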
Direction: two-siRNA summed score (-2 to +2): higher = both siRNAs protect from cisplatin killing; -2 means both sensitise
Hit rule: 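siRNAs harmful alone (LDH or WST-1) get 0; others get +1 for less and -1 for more cisplatin killing; genes are active when the two siRNAs give the same sign, summing to ±2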
Meaning of the calls: active = both siRNAs shift cisplatin killing the same way; inactive = no consistent shift, or siRNA harmful alone

What is on record for TCTA [SID131512398]?
two-siRNA summed score (-2 to +2): 0; Call: inactive

With LOC387804 [SID131519362], what was measured?
two-siRNA summed score (-2 to +2): 1; Call: inactive

What is on record for DUSP19 [SID131503223]?
two-siRNA summed score (-2 to +2): 0; Call: inactive

With LINC02783 [SID131509610], what was measured?
two-siRNA summed score (-2 to +2): 0; Call: inactive

With C3orf38 [SID131522552], what was measured?
two-siRNA summed score (-2 to +2): 1; Call: inactive

What is on record for RPS6KL1 [SID131507395]?
two-siRNA summed score (-2 to +2): 0; Call: inactive

For MFSD11 [SID131510230], how do the results read?
two-siRNA summed score (-2 to +2): 0; Call: inactive

What did the screen give for LOC402103 [SID131507975]?
two-siRNA summed score (-2 to +2): 0; Call: inactive

What is on record for XKR6 [SID131512266]?
two-siRNA summed score (-2 to +2): 0; Call: inactive

How did the screen score XKR6 [SID131520687]?
two-siRNA summed score (-2 to +2): 1; Call: inactive

What did the screen give for SSR3 [SID131501340]?
two-siRNA summed score (-2 to +2): -1; Call: inactive

What did the screen give for NOBOX [SID131512223]?
two-siRNA summed score (-2 to +2): 0; Call: inactive

With LOC442690 [SID131520466], what was measured?
two-siRNA summed score (-2 to +2): 1; Call: inactive

How did the screen score PARP8 [SID131515707]?
two-siRNA summed score (-2 to +2): 0; Call: inactive

Copied from the entries so far (3 entries):
DUSP19 [SID131503223] → two-siRNA summed score (-2 to +2) = 0; Call = inactive
LINC02783 [SID131509610] → two-siRNA summed score (-2 to +2) = 0; Call = inactive
C3orf38 [SID131522552] → two-siRNA summed score (-2 to +2) = 1; Call = inactive

The list goes on:
For LOC137107 [SID131507676], how do the results read?
two-siRNA summed score (-2 to +2): 0; Call: inactive

What is on record for HID1 [SID131518097]?
two-siRNA summed score (-2 to +2): 0; Call: inactive

Which result is listed for BCO2 [SID131514004]?
two-siRNA summed score (-2 to +2): 0; Call: inactive

Which result is listed for UBE2T [SID131500293]?
two-siRNA summed score (-2 to +2): -2; Call: active

What did the screen give for LOC391560 [SID131514647]?
two-siRNA summed score (-2 to +2): 0; Call: inactive

What is on record for LOC440748 [SID131522708]?
two-siRNA summed score (-2 to +2): 1; Call: inactive

For GSX2 [SID131510534], what was measured?
two-siRNA summed score (-2 to +2): 0; Call: inactive
